Assay results: PubChem BioAssay AID504467 (National Center for Advancing Translational Sciences (NCATS), 2011)
Out of some 330,000 compounds screened, about 7,700 (2.3%) were called active. The shares of active, inactive and inconclusive entries below differ from those in the screen. The call rests on the fitted dose curve; in most records, active means well fitted inhibition curve with a large enough effect; inconclusive means small, poorly fitted or top-dose-only effect, or effect the other way; inactive means flat fitted curve, though single readings scatter. Potencies of inconclusive entries are doubtful fits and often do not repeat.
On the % scale 0 is the no-effect control and ±100 the full control effect; potency means the concentration at half of the fitted maximal effect.

Assay: qHTS screen for small molecules that inhibit ELG1-dependent DNA repair in human embryonic kidney (HEK293T) cells expressing luciferase-tagged ELG1; further: nearly all actives have a fitted effect of over 55% in size
Conditions: HEK293T ELG1-luciferase reporter, luminescence, 16 h, DNA damage induced by 5-fluorouridine; activity change, negative = inhibition: at 46.1 µM (top of the series)
Summary of the method: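 Reporter activity after DNA damage by 5-fluorouridine is monitored. Compound-treated cells incubate 16 hr at 37 °C, then ONE-Glo is added for 30 min before luminescence reading.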
In the case of `COC(=O)C(C(=O)Nc1ccc(OC)cc1)C1CCCCCC1` (stereo not drawn), the Potency is reported as inconclusive: 29.1 µM [inhibitor, single point].
In the case of `O=C(c1cccc(Cl)c1)N1CCN(Cc2ccc3c(c2)OCO3)CC1`, the Potency is reported as inconclusive: 18.3 µM [inhibitor, partial curve, poor fit].
In the case of `NC(=S)N/N=C1\CC(c2ccc3c(c2)OCCCO3)Oc2ccc(F)cc21` (stereo not drawn), the Potency is reported as active: 3.66 µM.
With `COc1ccccc1C(=O)NC(=O)COC(=O)c1nc2nc(C)cc(C)n2n1` the Potency was inconclusive: 10.3 µM [activator, partial curve, poor fit].
For `O=C(c1ccc(-c2cccc(C(F)(F)F)c2)o1)N1CCN(c2ccccc2)CC1`, the Potency was inconclusive: 4.61 µM [activator, single point].
With `Cc1cc(N2CCCC(C(=O)Nc3ccc4c(c3)CCC4)C2)n2ncnc2n1` (stereo not drawn) the Potency was inconclusive: 10.3 µM [inhibitor, partial curve, poor fit].
With `COCCN1C=C(C(=O)OC)C(c2ccccc2C(F)(F)F)C(C(=O)OC)=C1` the “activity change, negative = inhibition” value was inactive: 1.12%.
With `Cc1cc(C)c(C#N)c(SCC(=O)Nc2ccccc2)n1` the Potency was inconclusive: 16.4 µM [activator, partial curve].
For `NS(=O)(=O)c1ccc(NC(=O)COC(=O)c2ccc(S(=O)(=O)N3CCOCC3)cc2)cc1`, the Potency was inconclusive: 16.4 µM [activator, single point].
For `COc1ccccc1NS(=O)(=O)c1cccc(NC(=O)c2sc3ccccc3c2Cl)c1`, the Potency was inconclusive: 23.1 µM [inhibitor, partial curve].
In the case of `CC(=O)Nc1cccc(CP(=O)(c2ccccc2)c2ccccc2)c1`, the Potency is reported as inconclusive: 6.51 µM [inhibitor, single point].
In the case of `O=C(CCN1C(=O)/C(=C/c2cccs2)SC1=S)N1CCCCC1`, the Potency is reported as inconclusive: 29.1 µM [inhibitor, single point].
With `CCC(CC)c1nnc(NC(=O)CCc2ccc(OC)cc2)s1` the Potency was inconclusive: 5.62 µM [inhibitor, partial curve, poor fit].
In the case of `CCOC(=O)CCCc1ccc(/C(C)=N/NC(=S)NC)cc1`, the “activity change, negative = inhibition” value is reported as inactive: -14.4%.
With `Cc1cc(C)cc(C(=O)NC(=S)Nc2ccc(-c3cc4ccccc4oc3=O)cc2)c1` the “activity change, negative = inhibition” value was inactive: -3.53%.
For `CCc1cccc(NC(=O)c2cccc3c2C(=O)N(CC2CCCO2)C3)c1` (stereo not drawn), the Potency was inconclusive: 23.1 µM [inhibitor, single point].
In the case of `CC(C)(C)c1ccc(OCC(=O)NNC(=O)c2cccnc2)cc1`, the “activity change, negative = inhibition” value is reported as inactive: -15.5%.
In the case of `CCCc1nc2ccc(NC(C)=O)cc2c(=O)n1Cc1cccc(Cl)c1`, the Potency is reported as inconclusive: 2.31 µM [activator, partial curve, poor fit].
In the case of `COc1ccc(-c2nn(-c3ccccc3)cc2C(=O)Nc2ccc(C(=O)O)cc2)cc1OC`, the Potency is reported as inconclusive: 16.4 µM [activator, single point].
With `Cc1ccc(C)c(OCCC(=O)N2CCN(S(=O)(=O)c3cc(C)ccc3C)CC2)c1` the Potency was inconclusive: 17.8 µM [inhibitor, single point].
With `CCCNc1nc(NCC)nc(OC)n1` the Potency was inconclusive: 22.4 µM [inhibitor, single point].
In the case of `COc1ccc(CNc2nc3nc(C)cc(C)n3n2)cc1`, the Potency is reported as inconclusive: 8.91 µM [activator, partial curve].
For `COc1ccc(-n2nc(C(=O)NCC(=O)NCCC3=CCCCC3)c3ccccc3c2=O)cc1OC`, the Potency was active: 9.2 µM.
For `COc1cccc(/C=N/NC(=O)c2cc3c(OC)c(OC)ccc3[nH]2)c1OC`, the Potency was inconclusive: 9.2 µM [inhibitor, partial curve].
For `O=C(NCCN1CCCCC1)c1ccc(/C=N/O)nc1`, the “activity change, negative = inhibition” value was inactive: 23.3%.
With `Cc1ccccc1C(=O)NN1C(=O)CSC1=S` the Potency was inconclusive: 13 µM [activator, partial curve, poor fit].
For `CC(CCc1ccccc1)NC(=O)CCCn1ncn2c(cc3occc32)c1=O` (stereo not drawn), the “activity change, negative = inhibition” value was inactive: -8.39%.
With `CCCCC(=O)N=c1sc2cc(S(C)(=O)=O)ccc2n1C` the “activity change, negative = inhibition” value was inactive: 9.68%.
In the case of `Cc1nc2oc(C(=O)c3ccc(Br)cc3)c(N)c2c2c1COC(C)(C)C2`, the “activity change, negative = inhibition” value is reported as inactive: 10.4%.
For `Cc1ccc(C)c(C(=O)NCCN(C)C)c1`, the “activity change, negative = inhibition” value was inactive: 25.7%.
With `Cc1cc(OCC(=O)NNC(=O)c2cccnc2)cc(C)c1Cl` the Potency was inconclusive: 20.6 µM [activator, single point].
In the case of `CCOc1ccc(NC(=O)CN(C)C(=O)c2cc(-c3ccncc3)nc3ccccc23)cc1OCC`, the Potency is reported as inconclusive: 29.1 µM [inhibitor, single point].
In the case of `CC(C)(C)NC(=O)CSc1nc2ccc(NC(=O)CSc3nnc(N)s3)cc2s1`, the Potency is reported as active: 16.4 µM.
In the case of `CSc1nc(N2CCCC2)c2c(c1C#N)CC(C)(C)OC2`, the Potency is reported as inconclusive: 0.116 µM [inhibitor, full curve, poor fit].
For `Cc1ccc(CN(C)C(=O)C2CCC(=O)N(CCc3ccccc3)C2)o1` (stereo not drawn), the Potency was inconclusive: 1.64 µM [activator, partial curve, poor fit].
For `Cc1cc(C(=O)N/N=C/c2cccnc2)cs1`, the Potency was inconclusive: 20.6 µM [activator, partial curve].
With `Cc1cccc(NC(=O)Nc2ccc(S(=O)(=O)Nc3onc(C)c3C)cc2)c1` the Potency was inconclusive: 31.6 µM [activator, single point].
With `COc1cccc(Nc2ccccc2C(=O)O)c1` the Potency was inconclusive: 16.4 µM [activator, single point].
For `CCC1(C)NC(=O)N(CC(=O)N2N=C(c3ccccc3)CC2c2ccc(OC)cc2)C1=O` (stereo not drawn), the “activity change, negative = inhibition” value was inactive: -11.8%.
With `COC(=O)CSc1nnc(SCc2ccccc2)s1` the “activity change, negative = inhibition” value was inactive: -5.33%.
For `COc1cccc2cc(C(=O)CS(=O)(=O)c3ccc(C(C)(C)C)cc3)c(=O)oc12`, the “activity change, negative = inhibition” value was inactive: 16.4%.
For `CCOP(=O)(OCC)C(NC(=O)Nc1ccccc1)C(N)=O` (stereo not drawn), the activity change, negative = inhibition was inconclusive: 26% [activator].
In the case of `Cc1cc(C)nc(NC(=O)CSc2nc3cc(Cl)ccc3s2)n1`, the Potency is reported as inconclusive: 16.4 µM [activator, partial curve, poor fit].
In the case of `CCOc1ncccc1C(=O)N1CCN(S(=O)(=O)c2ccc3ccccc3c2)CC1`, the “activity change, negative = inhibition” value is reported as inactive: -11.3%.
For `CCCCCc1cc(=O)oc2c(C(CCN3CCCCC3)c3cc(OC)c(OC)c(OC)c3)c(OC)cc(OC)c12` (stereo not drawn), the “activity change, negative = inhibition” value was inactive: 14.4%.
For `CCc1nn(CCCC(=O)Nc2ccc(C)cc2C)c(=O)c2cc3occc3n12`, the “activity change, negative = inhibition” value was inactive: 2.59%.
For `COc1ccc(/C=N/n2nnnc2N)cc1OC`, the Potency was inconclusive: 23.1 µM [activator, partial curve, poor fit].
With `COc1ccccc1C(=O)NC(=S)Nc1cc(C(=O)O)ccc1C` the “activity change, negative = inhibition” value was inactive: -2.42%.
In the case of `CCC(=O)Nc1ccc2oc(-c3cccc(C)c3)nc2c1`, the Potency is reported as inconclusive: 1 µM [activator, full curve, poor fit].
With `COc1ccc(C(=O)COC(=O)c2ccccc2O)c(OC)c1` the Potency was inconclusive: 6.51 µM [activator, partial curve].
In the case of `CCCCn1nc2cc(C(=O)NCC34CC5CC(CC(C5)C3)C4)ccc2c1OC`, the Potency is reported as inconclusive: 20.6 µM [inhibitor, single point].
In the case of `COC(=O)c1ccc(COc2ccc3c(c2)CCC3)o1`, the Potency is reported as inconclusive: 16.4 µM [activator, partial curve].
With `COC(=O)c1ccc(NC(=O)CSc2ccccc2)cc1` the Potency was inconclusive: 16.4 µM [activator, partial curve].
For `COCCN=c1scc(C)n1/N=C/C1CC2C=CC1C2` (stereo not drawn), the “activity change, negative = inhibition” value was inactive: -7.56%.
For `CC(Nc1ncnc2ccccc12)c1ccccc1` (stereo not drawn), the “activity change, negative = inhibition” value was inactive: -26.5%.
With `CCOC(=O)c1c(OCC)[nH]c2c1cc(O)c1ccccc12` the Potency was active: 20.6 µM.
For `Cc1cccc(OCC(=O)O/N=C(\N)c2ccccn2)c1`, the Potency was inconclusive: 13 µM [activator, partial curve].
In the case of `Cc1ccn2c(C(=O)CSc3ccc(Cl)cc3)c(C)nc2c1`, the Potency is reported as inconclusive: 23.1 µM [inhibitor, single point].
For `O=C(NCC(c1cccnc1)N1CCN(c2ccc(F)cc2)CC1)c1ccc2c(c1)OCO2` (stereo not drawn), the Potency was inconclusive: 23.1 µM [inhibitor, single point].
With `COc1cccc(/C=N/Nc2c(Cl)cncc2Cl)c1O` the Potency was inconclusive: 20.6 µM [activator, partial curve].
For `COc1ccccc1/C=C/C=N/N1CCN(Cc2ccccc2)CC1`, the “activity change, negative = inhibition” value was inactive: -3.96%.
With `Cc1ccc(NC2CCCN(C(=O)C3CCCC3)C2)cc1C` (stereo not drawn) the “activity change, negative = inhibition” value was inactive: -3.01%.
In the case of `C=CCNc1nc(N2CCCCC2)c(C#N)c2c1CN(Cc1ccccc1)CC2`, the Potency is reported as active: 23.1 µM.
With `O=C(Nc1ccc2c(c1)OCCO2)c1ccco1` the Potency was inconclusive: 9.2 µM [activator, partial curve, poor fit].
For `CC(C)C[C@@H](CO)N1CCN(CCCc2ccccc2)CCC1=O`, the “activity change, negative = inhibition” value was inactive: 4.15%.
In the case of `Cc1c(C(=O)N2CCN(C3CCS(=O)(=O)C3)CC2)oc2ccc(Cl)cc12` (stereo not drawn), the Potency is reported as inconclusive: 0.164 µM [inhibitor, full curve, poor fit].
In the case of `Cc1[nH]c2ccccc2c1C(=O)C(=O)Nc1ccc2c(c1)OCCO2`, the Potency is reported as inconclusive: 18.3 µM [activator, partial curve].
For `O=C(NCC1CCCN(C(=O)c2cc(Cl)ccc2F)C1)c1ccc(F)cc1` (stereo not drawn), the “activity change, negative = inhibition” value was inactive: 4.94%.
In the case of `CCOC(=O)COc1ccc(-c2nnc(-c3ccccc3)o2)cc1`, the Potency is reported as inconclusive: 18.4 µM [activator, single point].
In the case of `CCCN1C(=O)C(O)(C2COC(C)(C)CC2=O)c2ccccc21` (stereo not drawn), the “activity change, negative = inhibition” value is reported as inactive: -13%.
With `O=C1CC(c2cccc([N+](=O)[O-])c2)c2c(ccc3ccccc23)N1` (stereo not drawn) the Potency was inconclusive: 25.9 µM [inhibitor, single point].
For `CCSc1ncc(Cl)c(C(=O)Nc2ccccc2)n1`, the “activity change, negative = inhibition” value was inactive: -3.51%.
In the case of `COc1ccc(C(=O)NCCc2nnc3ccc(SCC(=O)N4CCCCC4)nn23)cc1`, the Potency is reported as inconclusive: 20.6 µM [inhibitor, partial curve, poor fit].
